{
  "source": "PubChem BioAssay AID2685",
  "about": "(National Center for Advancing Translational Sciences (NCATS), 2010)",
  "experiment": "qHTS Assay for Lipid Storage Modulators in Drosophila S3 Cells;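 as to cell number change: cells counted by Cell Tracker Red CMTPX staining in the red channel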",
  "conditions": "BODIPY lipid droplet fluorescence, 18-24 h; for cell number change: measured here: cell count max response, cells fed with added oleic acid",
  "outline": "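Laser-scanning cytometry quantifies lipid droplet accumulation (500–530 nm total intensity; droplet/cell object ratio) in oleic acid-fed (400 uM added) Drosophila S3 cells treated with a concentration series. 20 uM Triacsin C defined 100% inhibition.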",
  "key": {"[1]": {"conditions": "measured here: lipid fluorescence (Fed channel) AC50, cells fed with added oleic acid"}, "[2]": {"conditions": "measured here: cell number channel AC50, cells fed with added oleic acid"}},
  "note": "The list shows a part of the results. Further columns of the screen follow, without active or inactive calls. Compounds called inactive in the main read-out are mostly missing here. The note in brackets gives the kind of curve behind each potency; many fits are weak.",
  "data": [
    {"smiles": "Cc1cc(C)nc(NC(=O)c2ccc(C)o2)n1", "values": [
      {"measurement": "cell number change", "value": 31.5, "unit": "%"},
      {"measurement": "AC50", "setting": "[1]", "value": "29.1 µM [rising, single point]"}
    ]},
    {"smiles": "COc1cc(C2C(C(C)=O)=C(O)C(=O)N2CCc2ccc(OC)c(OC)c2)ccc1O", "note": "(stereo not drawn)", "values": [
      {"measurement": "cell number change", "value": 0.779, "unit": "%"},
      {"measurement": "AC50", "setting": "[1]", "value": "0.092 µM [falling, full curve]"}
    ]},
    {"smiles": "CC1CCC2(CC1)NC(=O)N(CC(=O)N1CCN(C(=O)c3ccco3)CC1)C2=O", "note": "(stereo not drawn)", "values": [
      {"measurement": "cell number change", "value": -4.82, "unit": "%"},
      {"measurement": "AC50", "setting": "[1]", "value": "0.0461 µM [rising, partial curve]"}
    ]},
    {"smiles": "CCCC(=O)NNC(=O)CCC(=O)NCc1ccccc1", "values": [
      {"measurement": "cell number change", "value": -4.35, "unit": "%"},
      {"measurement": "AC50", "setting": "[1]", "value": "0.00461 µM [rising, full curve, poor fit]"}
    ]},
    {"smiles": "CCN(CC)CCOCCOC(=O)C(CC)(CC)c1ccccc1", "values": [
      {"measurement": "cell number change", "value": -44.4, "unit": "%"},
      {"measurement": "AC50", "setting": "[2]", "value": "14.6 µM [falling, partial curve, poor fit]"},
      {"measurement": "AC50", "setting": "[1]", "value": "14.6 µM [falling, partial curve, poor fit]"}
    ]},
    {"smiles": "O=C(NCCc1ccccc1)C(=O)c1c[nH]c2ccccc12", "values": [
      {"measurement": "cell number change", "value": 30.9, "unit": "%"},
      {"measurement": "AC50", "setting": "[2]", "value": "0.92 µM [rising, partial curve, poor fit]"}
    ]},
    {"smiles": "O=c1[nH]cnc(O)c1N=Nc1ccccc1", "values": [
      {"measurement": "AC50", "setting": "[1]", "value": "29.1 µM [rising, single point]"}
    ]},
    {"smiles": "CCNC(=O)c1nc[nH]c1C(=O)NCC", "values": [
      {"measurement": "cell number change", "value": 5.65, "unit": "%"},
      {"measurement": "AC50", "setting": "[1]", "value": "2.31 µM [falling, full curve, poor fit]"}
    ]},
    {"smiles": "O=C1NCCN/C1=C\\C(=O)c1ccc(F)cc1", "values": [
      {"measurement": "cell number change", "value": 15.8, "unit": "%"},
      {"measurement": "AC50", "setting": "[1]", "value": "29.1 µM [falling, single point]"}
    ]},
    {"smiles": "O=C1C(=O)N(Cc2cccnc2)C(c2ccccn2)/C1=C(/O)c1ccccc1", "note": "(stereo not drawn)", "values": [
      {"measurement": "AC50", "setting": "[1]", "value": "32.6 µM [falling, single point]"}
    ]},
    {"smiles": "Cc1noc(C)c1COc1ccc(CC(=O)NC2CCCCCC2)cc1", "values": [
      {"measurement": "cell number change", "value": -3.12, "unit": "%"},
      {"measurement": "AC50", "setting": "[2]", "value": "3.66 µM [falling, partial curve, poor fit]"}
    ]},
    {"smiles": "Cc1[nH]c2ccc3c(ncn3CCC#N)c2c1C", "values": [
      {"measurement": "AC50", "setting": "[2]", "value": "2.31 µM [rising, partial curve]"},
      {"measurement": "AC50", "setting": "[1]", "value": "1.16 µM [rising, partial curve]"}
    ]},
    {"smiles": "CCOc1ccc(NC2=NCCC(=O)N2Cc2cccs2)cc1", "values": [
      {"measurement": "cell number change", "value": 23.9, "unit": "%"},
      {"measurement": "AC50", "setting": "[1]", "value": "6.51 µM [falling, single point]"}
    ]},
    {"smiles": "COc1ccc(C2C(C(N)=O)=C(C)Nc3ncnn32)cc1", "note": "(stereo not drawn)", "values": [
      {"measurement": "cell number change", "value": -13.4, "unit": "%"},
      {"measurement": "AC50", "setting": "[1]", "value": "0.92 µM [falling, full curve]"}
    ]},
    {"smiles": "O=C(Nc1ncc2c(n1)CC(c1cccc(Cl)c1)CC2=O)c1ccco1", "note": "(stereo not drawn)", "values": [
      {"measurement": "cell number change", "value": -7.58, "unit": "%"},
      {"measurement": "AC50", "setting": "[1]", "value": "13 µM [falling, single point]"}
    ]},
    {"smiles": "CCc1ccc(NC(=O)C(C)OC(=O)c2cccc(S(=O)(=O)N3CCc4ccccc4C3)c2)cc1", "note": "(stereo not drawn)", "values": [
      {"measurement": "cell number change", "value": -21.2, "unit": "%"},
      {"measurement": "AC50", "setting": "[1]", "value": "20.6 µM [falling, partial curve, poor fit]"}
    ]},
    {"smiles": "CCN(c1ccccc1)S(=O)(=O)c1ccc(OC)c(NS(=O)(=O)c2cccs2)c1", "values": [
      {"measurement": "cell number change", "value": 4.06, "unit": "%"},
      {"measurement": "AC50", "setting": "[1]", "value": "29.1 µM [rising, single point]"}
    ]}
  ]
}
